Results from PubChem BioAssay AID1345085 (National Center for Advancing Translational Sciences (NCATS), 2018).
Inconclusive means that the source gave no clear call. Such entries were picked first, then a sample of the others. A potency beside an inconclusive call is a rough fit, not a confirmed value. Activity calls are given as the source filed them. Calls follow the shape of the dose curve; as a rule, active = well fitted cell-killing curve with a large enough effect; inconclusive = small, poorly fitted or top-dose-only effect, or effect the other way; inactive = no such curve, though single readings can be large or run the other way.

test system: JEG-3; assay: Confirmatory qHTS for gynecologic anti-cancer compounds from libraries of approved drugs and bioactive compounds; settings: gynecologic cancer cell panel viability, ATPlite luminescence, 48 h; series mostly up to 57.6 µM; also: nearly all actives have a fitted effect of over 55% in size
Method in brief: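 Seeding 1,000 cells per well preceded overnight (16 h) attachment, after which 48 h drug treatment across 57.5 uM–0.977 nM (11 points) was applied. Remaining cellular ATP, detected by ATPlite luminescence, defined IC50.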
% is scaled to controls: 0 for no effect and ±100 for the full control effect; potency is read from the fitted curve at half-maximal effect.

Structure (SMILES)	Potency	activity change, negative = viability loss
OCCNC1CCCc2c1[nH]c1ccc(-c3ccccc3)cc21 (stereo unspecified)	inconclusive: 43.2 µM [cytotoxic, single point]	
Cc1c(C)n(Cc2ccc(-c3ccccc3C(=O)O)cc2)c2ccc(C(=O)N[C@@H](C)c3ccc([N+](=O)[O-])cc3)cc12	inconclusive: 30.6 µM [cytotoxic, single point]	
COc1cc(Nc2c(C#N)cnc3cc(OCCCN4CCN(C)CC4)c(OC)cc23)c(Cl)cc1Cl	inconclusive: 17.2 µM [cytotoxic, partial curve, poor fit]	
O=C(NCC(O)CO)c1ccncc1Nc1ccc(I)cc1F (stereo unspecified)	inactive	
CCCc1nn(C)c2c(=O)[nH]c(-c3cc(S(=O)(=O)N4CCN(C)CC4)ccc3OCC)nc12	inactive	
c1cc(N[C@@H]2CCNC2)nc(-c2cnc3ccc(-c4cn[nH]c4)cn23)c1	inconclusive: 21.7 µM [cytotoxic, partial curve]	
CC(C)C[C@H](NC(=O)[C@@H](NC(=O)c1cccc(-c2ccccc2)n1)[C@@H](C)O)B(O)O	active: 1.53 µM	
CN(C)/N=N/c1nc[nH]c1C(N)=O	inconclusive: 27.3 µM [cytotoxic, partial curve]	
COc1cc2c(NC3CCN(C(C)C)CC3)nc(C3CCCCC3)nc2cc1OCCCN1CCCC1	active: 10.9 µM	
CN1CCCC(n2nc(Cc3ccc(Cl)cc3)c3ccccc3c2=O)CC1 (stereo unspecified)	inconclusive: 43.2 µM [cytotoxic, single point]	
Cc1nc2ccc(CN(C)c3ccc(C(=O)NC(CCC(=O)O)C(=O)O)s3)cc2c(=O)[nH]1 (stereo unspecified)	inactive	
CCOc1cc2ncc(C#N)c(Nc3ccc(F)c(Cl)c3)c2cc1NC(=O)/C=C/CN(C)C	active: 30.6 µM	
COc1ccc2c(c1)c(CC(=O)O)c(C)n2C(=O)c1ccc(Cl)cc1	inactive	
COc1cc(Nc2ncc3c(n2)-c2ccc(Cl)cc2C(c2c(F)cccc2OC)=NC3)ccc1C(=O)O	inconclusive: 3.43 µM [cytotoxic, full curve]	
Cn1cnc([N+](=O)[O-])c1Sc1ncnc2nc[nH]c12	active: 8.63 µM	
O=c1c(-c2ccc(O)cc2)coc2cc(O)cc(O)c12	inconclusive: 21.7 µM [cytotoxic, partial curve, poor fit]	

Structure (SMILES)	Potency	activity change, negative = viability loss
COc1cc2ncnc(Nc3ccc(F)c(Cl)c3)c2cc1OCCCN1CCOCC1	inactive	
COC(C(=O)N1Cc2[nH]nc(NC(=O)c3ccc(N4CCN(C)CC4)cc3)c2C1)c1ccccc1 (stereo unspecified)	inconclusive: 3.43 µM [cytotoxic, full curve]	
CCn1c(-c2nonc2N)nc2c(C#CC(C)(C)O)ncc(OCC3CCCNC3)c21 (stereo unspecified)	inactive	
COc1ccc(CCC(=O)c2c(O)cc(O[C@@H]3O[C@H](CO)[C@@H](O)[C@H](O)[C@H]3O[C@@H]3O[C@@H](C)[C@H](O)[C@@H](O)[C@H]3O)cc2O)cc1O	inactive	
CN1C2CCC1CC(OC(=O)[C@H](CO)c1ccccc1)C2 (stereo partly specified)	inactive	
Cc1cc(C(C)Nc2ccccc2C(=O)O)c2nc(N3CCOCC3)cc(=O)n2c1 (stereo unspecified)	inconclusive: 15.3 µM [cytotoxic, partial curve]	
NS(=O)(=O)OC[C@@H]1C[C@@H](n2ccc3c(N[C@H]4CCc5ccccc54)ncnc32)C[C@@H]1O	inconclusive: 3.06 µM [cytotoxic, full curve]	
CNc1nc(Nc2ccc(C(=O)N3CCOCC3)cc2OC)ncc1Cl	inactive	
O=C(NOCC1CC1)c1ccc(F)c(F)c1Nc1ccc(I)cc1Cl	inconclusive: 30.6 µM [cytotoxic, single point]	
O=c1[nH]c(=O)n([C@H]2C[C@H](O)[C@@H](CO)O2)cc1Br	inactive	
O=C(O)c1ccc(Nc2ncc3c(n2)-c2ccc(Cl)cc2C(c2c(F)cccc2F)=NC3)cc1	inconclusive: 24.3 µM [cytotoxic, partial curve, poor fit]	
CN(C)c1ccc(-c2nc3ncc(Cl)c(N4CCN(CC(=O)Nc5nccs5)CC4)c3[nH]2)cc1	inactive	
COc1cc(F)c(F)c(Nc2ccc(I)cc2F)c1NS(=O)(=O)C1(CC(O)CO)CC1 (stereo unspecified)	inconclusive: 0.685 µM [rising, partial curve]	
NC(=O)c1cccc2cn(-c3ccc([C@@H]4CCCNC4)cc3)nc12	inactive	
CC[C@H](Nc1ncnc2nc[nH]c12)c1nc2cccc(F)c2c(=O)n1-c1ccccc1		inactive: -0.887% [at 10.6 µM]

Taken from the entries so far (8 entries):
Structure (SMILES)	Potency	activity change, negative = viability loss
CN1C2CCC1CC(OC(=O)[C@H](CO)c1ccccc1)C2 (stereo partly specified)	inactive	
Cc1cc(C(C)Nc2ccccc2C(=O)O)c2nc(N3CCOCC3)cc(=O)n2c1 (stereo unspecified)	inconclusive: 15.3 µM [cytotoxic, partial curve]	
NS(=O)(=O)OC[C@@H]1C[C@@H](n2ccc3c(N[C@H]4CCc5ccccc54)ncnc32)C[C@@H]1O	inconclusive: 3.06 µM [cytotoxic, full curve]	
CNc1nc(Nc2ccc(C(=O)N3CCOCC3)cc2OC)ncc1Cl	inactive	
O=C(NOCC1CC1)c1ccc(F)c(F)c1Nc1ccc(I)cc1Cl	inconclusive: 30.6 µM [cytotoxic, single point]	
O=c1[nH]c(=O)n([C@H]2C[C@H](O)[C@@H](CO)O2)cc1Br	inactive	
O=C(O)c1ccc(Nc2ncc3c(n2)-c2ccc(Cl)cc2C(c2c(F)cccc2F)=NC3)cc1	inconclusive: 24.3 µM [cytotoxic, partial curve, poor fit]	
CN(C)c1ccc(-c2nc3ncc(Cl)c(N4CCN(CC(=O)Nc5nccs5)CC4)c3[nH]2)cc1	inactive	
